This assay concerns the target CD2 association protein (CD2AP) (human (endogenous in HEK293T)) (UniProt Q9Y5K6). Kind of assay: co-IP; HEK293T cells transfected with Flag Vector, Flag-WT or Flag-E841K and lysed at 48 h; protein A/G beads pre-incubated with CD2AP overnight were added to the supernatant, 4 °C overnight; five washes with RIPA buffer; blot for Flag and CD2AP; the results call it a pull-down.

The chains behind the UniProt entries cited, without tags or fusion partners.
UniProt Q9Y5K6: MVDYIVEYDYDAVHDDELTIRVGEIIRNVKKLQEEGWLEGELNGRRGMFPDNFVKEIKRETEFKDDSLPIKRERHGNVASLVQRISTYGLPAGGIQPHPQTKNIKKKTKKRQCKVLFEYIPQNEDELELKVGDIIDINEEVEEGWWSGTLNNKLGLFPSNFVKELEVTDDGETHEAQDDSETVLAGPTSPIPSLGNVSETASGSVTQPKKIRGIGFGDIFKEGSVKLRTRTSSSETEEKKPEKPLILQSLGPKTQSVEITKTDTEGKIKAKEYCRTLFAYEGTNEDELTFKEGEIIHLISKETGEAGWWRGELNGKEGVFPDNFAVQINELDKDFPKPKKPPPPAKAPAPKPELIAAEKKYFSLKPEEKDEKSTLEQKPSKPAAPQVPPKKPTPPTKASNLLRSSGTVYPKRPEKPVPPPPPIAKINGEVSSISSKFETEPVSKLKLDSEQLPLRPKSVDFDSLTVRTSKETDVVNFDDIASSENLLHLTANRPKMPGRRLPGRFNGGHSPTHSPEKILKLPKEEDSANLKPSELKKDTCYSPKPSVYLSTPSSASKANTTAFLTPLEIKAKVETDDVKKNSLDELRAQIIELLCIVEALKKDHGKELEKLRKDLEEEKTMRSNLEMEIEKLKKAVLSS

Our source for the binding values is paper PMC10644598.

These are yes or no findings as the source states them, for the method shown. Binding seen in cells or lysates may run through a third protein. Some entries that bind do so weakly or less than the wild type. Sequences can lack the tags named with a protein.

B1: Flag-WT (ANLN, anillin, wild type) (protein, UniProt Q9NQW6-1 1-1124)
chain: MDPFTEKLLERTRARRENLQRKMAERPTAAPRSMTHAKRARQPLSEASNQQPLSGGEEKSCTKPSPSKKRCSDNTEVEVSNLENKQPVESTSAKSCSPSPVSPQVQPQAADTISDSVAVPASLLGMRRGLNSRLEATAASSVKTRMQKLAEQRRRWDNDDMTDDIPESSLFSPMPSEEKAASPPRPLLSNASATPVGRRGRLANLAATICSWEDDVNHSFAKQNSVQEQPGTACLSKFSSASGASARINSSSVKQEATFCSQRDGDASLNKALSSSADDASLVNASISSSVKATSPVKSTTSITDAKSCEGQNPELLPKTPISPLKTGVSKPIVKSTLSQTVPSKGELSREICLQSQSKDKSTTPGGTGIKPFLERFGERCQEHSKESPARSTPHRTPIITPNTKAIQERLFKQDTSSSTTHLAQQLKQERQKELACLRGRFDKGNIWSAEKGGNSKSKQLETKQETHCQSTPLKKHQGVSKTQSLPVTEKVTENQIPAKNSSTEPKGFTECEMTKSSPLKITLFLEEDKSLKVTSDPKVEQKIEVIREIEMSVDDDDINSSKVINDLFSDVLEEGELDMEKSQEEMDQALAESSEEQEDALNISSMSLLAPLAQTVGVVSPESLVSTPRLELKDTSRSDESPKPGKFQRTRVPRAESGDSLGSEDRDLLYSIDAYRSQRFKETERPSIKQVIVRKEDVTSKLDEKNNAFPCQVNIKQKMQELNNEINMQQTVIYQASQALNCCVDEEHGKGSLEEAEAERLLLIATGKRTLLIDELNKLKNEGPQRKNKASPQSEFMPSKGSVTLSEIRLPLKADFVCSTVQKPDAANYYYLIILKAGAENMVATPLASTSNSLNGDALTFTTTFTLQDVSNDFEINIEVYSLVQKKDPSGLDKKKKTSKSKAITPKRLLTSITTKSNIHSSVMASPGGLSAVRTSNFALVGSYTLSLSSVGNTKFVLDKVPFLSSLEGHIYLKIKCQVNSSVEERGFLTIFEDVSGFGAWHRRWCVLSGNCISYWTYPDDEKRKNPIGRINLANCTSRQIEPANREFCARRNTFELITVRPQREDDRETLVSQCRDTLCVTKNWLSADTKEERDLWMQKLNQVLVDIRLWQPDACYKPIGKP
For the molecule B1, the binding entry was “binds”.

B2: Flag-E841K (ANLN E841K) (protein, UniProt Q9NQW6-1 1-1124)
chain: MDPFTEKLLERTRARRENLQRKMAERPTAAPRSMTHAKRARQPLSEASNQQPLSGGEEKSCTKPSPSKKRCSDNTEVEVSNLENKQPVESTSAKSCSPSPVSPQVQPQAADTISDSVAVPASLLGMRRGLNSRLEATAASSVKTRMQKLAEQRRRWDNDDMTDDIPESSLFSPMPSEEKAASPPRPLLSNASATPVGRRGRLANLAATICSWEDDVNHSFAKQNSVQEQPGTACLSKFSSASGASARINSSSVKQEATFCSQRDGDASLNKALSSSADDASLVNASISSSVKATSPVKSTTSITDAKSCEGQNPELLPKTPISPLKTGVSKPIVKSTLSQTVPSKGELSREICLQSQSKDKSTTPGGTGIKPFLERFGERCQEHSKESPARSTPHRTPIITPNTKAIQERLFKQDTSSSTTHLAQQLKQERQKELACLRGRFDKGNIWSAEKGGNSKSKQLETKQETHCQSTPLKKHQGVSKTQSLPVTEKVTENQIPAKNSSTEPKGFTECEMTKSSPLKITLFLEEDKSLKVTSDPKVEQKIEVIREIEMSVDDDDINSSKVINDLFSDVLEEGELDMEKSQEEMDQALAESSEEQEDALNISSMSLLAPLAQTVGVVSPESLVSTPRLELKDTSRSDESPKPGKFQRTRVPRAESGDSLGSEDRDLLYSIDAYRSQRFKETERPSIKQVIVRKEDVTSKLDEKNNAFPCQVNIKQKMQELNNEINMQQTVIYQASQALNCCVDEEHGKGSLEEAEAERLLLIATGKRTLLIDELNKLKNEGPQRKNKASPQSEFMPSKGSVTLSEIRLPLKADFVCSTVQKPDAANYYYLIILKAGAKNMVATPLASTSNSLNGDALTFTTTFTLQDVSNDFEINIEVYSLVQKKDPSGLDKKKKTSKSKAITPKRLLTSITTKSNIHSSVMASPGGLSAVRTSNFALVGSYTLSLSSVGNTKFVLDKVPFLSSLEGHIYLKIKCQVNSSVEERGFLTIFEDVSGFGAWHRRWCVLSGNCISYWTYPDDEKRKNPIGRINLANCTSRQIEPANREFCARRNTFELITVRPQREDDRETLVSQCRDTLCVTKNWLSADTKEERDLWMQKLNQVLVDIRLWQPDACYKPIGKP
On to B2, for which the binding entry was “binds”.
